{"source": "PubChem BioAssay AID1347423", "about": "(Functional Genomics Laboratory (NCATS/FGL), 2020)", "note": "Hit rate of the full screen: of about 52,000 sequences, about 210 (0.4%) were called active.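 The calls were made as follows: active = gene whose silencing raises cell survival under the drug, median off-target-corrected z-score across its silencing RNAs 2 or more; inactive = the rest.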 This is one part of the list.", "data": [{"assay": "Resistance to Poly (ADP-Ribose) Polymerase inhibitor: Gene Identification via Genome-wide siRNA Screen", "conditions": "mouse BRCA2 R2336H ES cells, olaparib, CellTiter-Glo viability; stronger effect = higher value", "summary_of_the_method": "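Genome-wide siRNA screen (3 siRNAs/gene, 20 nM) in mouse ES cells carrying hypomorphic BRCA2 R2336H; olaparib 500 nM added 48 h post-transfection, CellTiter-Glo viability 72 h later. Normalized to plate-median negative control; MAD z-scores, gene median, seed-adjusted.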", "values": [{"sequence": "GGCUGCUGUGAAAUCAGAATT against D430041B17", "z-score": "inactive: 2.4"}, {"sequence": "GCAAAGUUACCUCAGUUCUTT against Olfr539", "z-score": "inactive: -0.708"}, {"sequence": "CCCAAAACUCUAGCUACUATT against Olfr824", "z-score": "inactive: -2.41"}, {"sequence": "GCUGAGACCUUUAUUUAAATT against Col11a2", "z-score": "inactive: 1"}, {"sequence": "GGAUGUGGCGCAAUAUAUUTT against Gpt1", "z-score": "inactive: 0.406"}, {"sequence": "CCCUCUACUACUGCAUCGUTT against AY534253", "z-score": "inactive: 0.138"}, {"sequence": "GGAAUUUGAGAUUGAAUGUTT against 2410042D21Rik", "z-score": "inactive: 2.31"}, {"sequence": "CCCGGUGCAGGAAUUCAACTT against D8Ertd812e", "z-score": "inactive: 1.82"}, {"sequence": "GCACUUACCGGAUCCAUUGTT against Clk4", "z-score": "inactive: -1.62"}, {"sequence": "GGAGAUUUCUUCAUCUUUUTT against AW413431", "z-score": "inactive: -1.29"}, {"sequence": "GGUUCAUACCUGUCUUAUUTT against Slc13a4", "z-score": "inactive: -0.847"}, {"sequence": "GGGUAGUUUUGACUUUGUUTT against Schip1", "z-score": "inactive: 0.155"}, {"sequence": "GCUACCAUUUGAUCAGUUUTT against Entpd1", "z-score": "inactive: 0.467"}, {"sequence": "GGCCUUACUCUUAAGUUCUTT against Brf1", "z-score": "inactive: -0.322"}, {"sequence": "GGGAAGCUCAUUGAAGCAGTT against Snrpd3", "z-score": "inactive: -1.1"}, {"sequence": "GCUACUAAAAGUAAAUGUCTT against Ugt8", "z-score": "inactive: -0.56"}, {"sequence": "GCAAGUACCUAGUGGUGGATT against Stk22b", "z-score": "inactive: -0.0671"}, {"sequence": "GGUUCUUCCUCAAAUUCUUTT against Ebf4", "z-score": "inactive: 0.79"}, {"sequence": "GCUAGUGUGAUACCAUUUATT against Nab1", "z-score": "inactive: 1.7"}, {"sequence": "GCUAGAAGUCAUUUUGAAATT against Mme", "z-score": "inactive: -0.106"}, {"sequence": "GCUAAGAUGAUGUCCUUGUTT against D12Ertd647e", "z-score": "inactive: -1.36"}, {"sequence": "GCUGAUACCGUCAUGAAUGTT against Gorasp2", "z-score": "inactive: 0.422"}, {"sequence": "GGCUGUACUUCUGUCCCAUTT against Hus1b", "z-score": "inactive: -0.651"}, {"sequence": "GCAUUGACAAUACGACCAGTT against Sgol1", "z-score": "inactive: -2.61"}, {"sequence": "CCUAUUGAAAAGCCAAACUTT against MGC48079", "z-score": "inactive: 1.59"}, {"sequence": "GGAAAGAGACAGAAGAAGCTT against Lrpb7", "z-score": "inactive: -0.392"}, {"sequence": "GGAUUAAAGAUGCUUCCAATT against BC002199", "z-score": "inactive: -0.422"}, {"sequence": "GGACUCAUUUGUGAACAGCTT against Centg3", "z-score": "inactive: 0.563"}, {"sequence": "GCGACUUUAGCUAAACAUGTT against Kcns2", "z-score": "inactive: 2.6"}]}]}
